Measurements: the supplement of paper PMC12595434, “Development of retinoid nuclear receptor pathway antagonists through targeting aldehyde dehydrogenase 1A3” (iScience, 2025)
Some of the results follow. The data scatter; read single values as rough.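 Tm was set to 64 °C where no melting was found, and many curves are irregular.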

The chains behind the UniProt entries cited, without tags or fusion partners. Where a name states a change or a piece, a line headed by the entry shows the natural chain unless it says otherwise.
UniProt Q92540: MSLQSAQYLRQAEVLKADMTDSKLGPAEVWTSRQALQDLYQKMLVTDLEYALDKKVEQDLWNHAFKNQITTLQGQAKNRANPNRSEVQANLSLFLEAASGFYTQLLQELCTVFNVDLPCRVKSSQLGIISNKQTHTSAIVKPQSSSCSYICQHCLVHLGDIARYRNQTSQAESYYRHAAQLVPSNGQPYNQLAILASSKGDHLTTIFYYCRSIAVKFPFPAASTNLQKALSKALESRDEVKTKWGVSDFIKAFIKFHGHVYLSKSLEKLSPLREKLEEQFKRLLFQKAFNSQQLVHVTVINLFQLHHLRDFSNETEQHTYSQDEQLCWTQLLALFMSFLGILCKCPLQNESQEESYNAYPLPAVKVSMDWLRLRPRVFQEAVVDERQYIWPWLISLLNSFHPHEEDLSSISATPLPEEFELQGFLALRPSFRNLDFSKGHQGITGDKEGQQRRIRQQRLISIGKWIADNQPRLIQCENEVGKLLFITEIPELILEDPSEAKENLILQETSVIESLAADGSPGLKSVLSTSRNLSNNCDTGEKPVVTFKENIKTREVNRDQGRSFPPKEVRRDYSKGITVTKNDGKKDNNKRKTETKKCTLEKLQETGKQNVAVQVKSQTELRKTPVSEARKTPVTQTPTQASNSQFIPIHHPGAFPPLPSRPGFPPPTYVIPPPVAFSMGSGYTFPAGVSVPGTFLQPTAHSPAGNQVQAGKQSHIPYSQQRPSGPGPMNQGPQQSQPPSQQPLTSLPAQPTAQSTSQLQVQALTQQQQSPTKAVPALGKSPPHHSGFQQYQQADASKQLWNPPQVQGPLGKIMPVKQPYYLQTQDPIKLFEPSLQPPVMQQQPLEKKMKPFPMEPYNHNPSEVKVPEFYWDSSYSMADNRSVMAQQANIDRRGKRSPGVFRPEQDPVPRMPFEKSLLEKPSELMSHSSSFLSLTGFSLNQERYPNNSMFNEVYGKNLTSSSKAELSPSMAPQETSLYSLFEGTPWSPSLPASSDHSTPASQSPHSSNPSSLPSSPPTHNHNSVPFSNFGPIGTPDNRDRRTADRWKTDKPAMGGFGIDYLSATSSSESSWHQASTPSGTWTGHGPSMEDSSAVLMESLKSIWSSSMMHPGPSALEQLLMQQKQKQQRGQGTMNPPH
UniProt Q96DF8: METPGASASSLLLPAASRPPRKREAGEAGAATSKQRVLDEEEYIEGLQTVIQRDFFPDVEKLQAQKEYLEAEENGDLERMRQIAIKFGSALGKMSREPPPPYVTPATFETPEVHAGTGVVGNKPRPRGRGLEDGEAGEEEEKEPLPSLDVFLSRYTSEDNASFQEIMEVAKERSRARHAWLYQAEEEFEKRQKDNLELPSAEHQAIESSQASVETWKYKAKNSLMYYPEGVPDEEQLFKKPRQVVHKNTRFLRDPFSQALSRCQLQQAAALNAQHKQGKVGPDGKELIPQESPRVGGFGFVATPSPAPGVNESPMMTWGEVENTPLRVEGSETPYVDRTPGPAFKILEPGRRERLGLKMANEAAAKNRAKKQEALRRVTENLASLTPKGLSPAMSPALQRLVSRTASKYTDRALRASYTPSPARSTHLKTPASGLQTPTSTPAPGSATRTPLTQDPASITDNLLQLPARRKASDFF
UniProt Q92791: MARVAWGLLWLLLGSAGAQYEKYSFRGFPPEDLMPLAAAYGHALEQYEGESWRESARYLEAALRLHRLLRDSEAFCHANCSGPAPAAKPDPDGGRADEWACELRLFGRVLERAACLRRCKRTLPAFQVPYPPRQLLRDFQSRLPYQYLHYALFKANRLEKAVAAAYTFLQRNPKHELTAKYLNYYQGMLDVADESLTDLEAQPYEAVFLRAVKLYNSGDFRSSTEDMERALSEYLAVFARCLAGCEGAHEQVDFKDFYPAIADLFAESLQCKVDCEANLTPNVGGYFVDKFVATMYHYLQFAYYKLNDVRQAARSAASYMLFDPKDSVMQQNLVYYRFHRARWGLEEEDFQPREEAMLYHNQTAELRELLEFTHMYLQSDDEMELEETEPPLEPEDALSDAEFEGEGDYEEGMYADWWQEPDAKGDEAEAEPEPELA
UniProt Q96EK6: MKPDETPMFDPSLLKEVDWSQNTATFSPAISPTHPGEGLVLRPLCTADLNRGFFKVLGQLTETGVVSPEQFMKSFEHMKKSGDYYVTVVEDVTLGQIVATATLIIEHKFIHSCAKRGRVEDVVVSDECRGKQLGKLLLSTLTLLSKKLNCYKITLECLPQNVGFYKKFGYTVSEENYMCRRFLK
UniProt Q92692, whole entry: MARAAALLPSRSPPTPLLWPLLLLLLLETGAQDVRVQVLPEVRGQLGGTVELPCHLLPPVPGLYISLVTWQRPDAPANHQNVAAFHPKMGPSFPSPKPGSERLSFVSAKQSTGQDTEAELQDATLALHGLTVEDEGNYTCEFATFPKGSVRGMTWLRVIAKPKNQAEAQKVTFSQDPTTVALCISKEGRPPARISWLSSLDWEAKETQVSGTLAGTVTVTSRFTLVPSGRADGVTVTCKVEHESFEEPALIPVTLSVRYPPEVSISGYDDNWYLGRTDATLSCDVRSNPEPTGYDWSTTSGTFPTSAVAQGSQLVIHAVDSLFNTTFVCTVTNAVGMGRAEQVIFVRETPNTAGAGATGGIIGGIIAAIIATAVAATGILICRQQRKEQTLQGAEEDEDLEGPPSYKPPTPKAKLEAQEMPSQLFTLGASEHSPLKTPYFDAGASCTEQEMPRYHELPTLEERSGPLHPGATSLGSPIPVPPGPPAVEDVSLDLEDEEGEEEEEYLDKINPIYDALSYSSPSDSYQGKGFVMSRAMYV
UniProt Q92793, whole entry, looked up: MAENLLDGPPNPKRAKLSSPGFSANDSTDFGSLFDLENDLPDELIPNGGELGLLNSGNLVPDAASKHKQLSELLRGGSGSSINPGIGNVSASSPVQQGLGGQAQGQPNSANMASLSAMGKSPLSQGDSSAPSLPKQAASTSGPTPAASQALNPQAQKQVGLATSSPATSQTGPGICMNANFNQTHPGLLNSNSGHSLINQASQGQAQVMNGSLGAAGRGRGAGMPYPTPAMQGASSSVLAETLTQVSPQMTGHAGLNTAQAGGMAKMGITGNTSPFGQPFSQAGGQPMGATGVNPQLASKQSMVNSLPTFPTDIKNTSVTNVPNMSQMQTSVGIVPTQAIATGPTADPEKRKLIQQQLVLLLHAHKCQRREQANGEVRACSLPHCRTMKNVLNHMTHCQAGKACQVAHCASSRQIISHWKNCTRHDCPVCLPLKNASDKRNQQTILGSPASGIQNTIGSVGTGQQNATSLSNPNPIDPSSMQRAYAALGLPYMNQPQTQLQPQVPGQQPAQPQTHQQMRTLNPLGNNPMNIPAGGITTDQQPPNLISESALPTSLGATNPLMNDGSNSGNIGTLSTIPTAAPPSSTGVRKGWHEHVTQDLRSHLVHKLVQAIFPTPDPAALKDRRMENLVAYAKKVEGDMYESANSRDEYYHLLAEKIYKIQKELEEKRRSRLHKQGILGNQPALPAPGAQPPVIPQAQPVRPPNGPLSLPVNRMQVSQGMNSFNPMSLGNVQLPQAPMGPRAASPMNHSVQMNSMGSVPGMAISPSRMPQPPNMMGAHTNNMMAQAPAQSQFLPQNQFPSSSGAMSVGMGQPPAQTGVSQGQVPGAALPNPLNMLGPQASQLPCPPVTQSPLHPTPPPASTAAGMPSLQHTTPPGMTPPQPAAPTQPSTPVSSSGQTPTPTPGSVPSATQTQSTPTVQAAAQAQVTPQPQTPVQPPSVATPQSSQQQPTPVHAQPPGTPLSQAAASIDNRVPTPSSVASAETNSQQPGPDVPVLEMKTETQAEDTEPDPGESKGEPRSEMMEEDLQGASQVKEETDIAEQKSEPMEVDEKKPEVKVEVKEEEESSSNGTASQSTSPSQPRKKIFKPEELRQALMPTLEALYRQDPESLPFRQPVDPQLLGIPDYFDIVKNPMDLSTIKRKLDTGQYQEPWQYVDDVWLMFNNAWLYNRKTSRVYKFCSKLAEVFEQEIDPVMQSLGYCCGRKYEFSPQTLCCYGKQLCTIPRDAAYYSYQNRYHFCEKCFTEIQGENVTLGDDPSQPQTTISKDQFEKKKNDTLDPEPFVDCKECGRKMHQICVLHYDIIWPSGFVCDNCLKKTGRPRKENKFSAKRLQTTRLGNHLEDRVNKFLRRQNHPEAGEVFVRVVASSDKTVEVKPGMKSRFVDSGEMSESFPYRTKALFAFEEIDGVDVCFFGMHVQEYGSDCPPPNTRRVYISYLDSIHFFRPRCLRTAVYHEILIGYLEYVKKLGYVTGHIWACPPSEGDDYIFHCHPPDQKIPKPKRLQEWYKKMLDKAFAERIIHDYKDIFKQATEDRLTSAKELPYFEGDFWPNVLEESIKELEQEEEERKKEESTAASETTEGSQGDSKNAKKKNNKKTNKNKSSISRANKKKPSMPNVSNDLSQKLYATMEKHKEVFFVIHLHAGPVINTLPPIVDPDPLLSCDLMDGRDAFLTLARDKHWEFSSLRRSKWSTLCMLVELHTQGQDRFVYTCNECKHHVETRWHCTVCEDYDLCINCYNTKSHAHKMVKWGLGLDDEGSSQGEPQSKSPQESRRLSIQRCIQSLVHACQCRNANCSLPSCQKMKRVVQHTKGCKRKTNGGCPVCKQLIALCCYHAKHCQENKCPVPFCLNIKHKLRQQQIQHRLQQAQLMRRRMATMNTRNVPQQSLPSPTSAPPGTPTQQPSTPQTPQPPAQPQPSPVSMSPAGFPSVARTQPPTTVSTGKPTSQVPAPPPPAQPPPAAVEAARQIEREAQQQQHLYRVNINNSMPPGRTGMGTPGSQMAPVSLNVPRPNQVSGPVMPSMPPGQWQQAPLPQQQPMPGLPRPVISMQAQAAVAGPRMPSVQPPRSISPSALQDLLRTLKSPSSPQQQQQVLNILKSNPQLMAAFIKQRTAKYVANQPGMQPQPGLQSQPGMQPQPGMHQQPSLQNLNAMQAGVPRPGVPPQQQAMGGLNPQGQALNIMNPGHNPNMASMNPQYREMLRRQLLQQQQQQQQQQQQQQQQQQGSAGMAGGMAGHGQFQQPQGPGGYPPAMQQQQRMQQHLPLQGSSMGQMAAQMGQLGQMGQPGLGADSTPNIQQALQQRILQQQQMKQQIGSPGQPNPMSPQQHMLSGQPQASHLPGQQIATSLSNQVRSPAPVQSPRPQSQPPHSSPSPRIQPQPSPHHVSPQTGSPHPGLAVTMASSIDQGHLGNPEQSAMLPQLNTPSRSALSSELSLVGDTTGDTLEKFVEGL
UniProt Q8WZA1: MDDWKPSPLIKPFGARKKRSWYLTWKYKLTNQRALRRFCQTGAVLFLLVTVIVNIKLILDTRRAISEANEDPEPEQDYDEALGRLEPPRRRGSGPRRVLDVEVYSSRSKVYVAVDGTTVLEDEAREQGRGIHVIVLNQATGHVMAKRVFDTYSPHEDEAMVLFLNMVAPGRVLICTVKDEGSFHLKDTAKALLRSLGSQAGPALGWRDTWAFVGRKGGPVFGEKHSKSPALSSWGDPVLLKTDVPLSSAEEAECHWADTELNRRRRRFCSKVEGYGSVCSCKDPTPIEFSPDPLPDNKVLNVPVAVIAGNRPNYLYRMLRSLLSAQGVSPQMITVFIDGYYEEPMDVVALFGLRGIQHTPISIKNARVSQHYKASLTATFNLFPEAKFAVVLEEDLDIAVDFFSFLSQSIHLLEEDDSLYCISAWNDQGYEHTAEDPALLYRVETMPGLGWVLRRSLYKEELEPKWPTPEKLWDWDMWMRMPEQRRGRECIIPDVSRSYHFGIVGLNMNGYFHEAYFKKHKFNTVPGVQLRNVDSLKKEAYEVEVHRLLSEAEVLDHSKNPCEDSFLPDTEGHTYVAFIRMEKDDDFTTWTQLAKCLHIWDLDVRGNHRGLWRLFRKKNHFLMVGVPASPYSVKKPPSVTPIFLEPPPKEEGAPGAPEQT
UniProt Q8WX92, whole entry: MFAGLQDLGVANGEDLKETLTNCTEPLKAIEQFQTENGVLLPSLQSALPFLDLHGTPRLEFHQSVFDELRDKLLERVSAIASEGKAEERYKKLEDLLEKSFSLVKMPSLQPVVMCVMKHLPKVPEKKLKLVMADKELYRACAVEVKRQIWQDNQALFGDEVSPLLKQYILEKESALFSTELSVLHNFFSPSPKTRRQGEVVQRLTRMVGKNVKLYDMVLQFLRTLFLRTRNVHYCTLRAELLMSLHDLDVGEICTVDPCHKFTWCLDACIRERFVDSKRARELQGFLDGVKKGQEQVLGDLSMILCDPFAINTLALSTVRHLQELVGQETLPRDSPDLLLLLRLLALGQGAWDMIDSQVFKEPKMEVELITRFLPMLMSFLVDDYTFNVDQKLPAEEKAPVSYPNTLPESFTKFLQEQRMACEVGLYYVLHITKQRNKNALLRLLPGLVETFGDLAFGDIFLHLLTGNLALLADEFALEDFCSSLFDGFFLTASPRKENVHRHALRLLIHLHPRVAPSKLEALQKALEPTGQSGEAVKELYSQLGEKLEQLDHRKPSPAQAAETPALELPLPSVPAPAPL

Compound: CCc1cnccc1C(=O)Nc1cc2c(cc1F)NC(=O)CC2
Assay: melting temperature shift (DMSO Tm minus MBE1-treated Tm) in cellular thermal proteome profiling; higher = less thermal stabilization by MBE1 (negative = stabilized by MBE1)
Conditions: A375

| Target | melting temperature shift (MBE1 concentration: 100 nM) [°C] | melting temperature shift (MBE1 concentration: 1 uM) [°C] |
| --- | --- | --- |
| REPS1 (UniProt Q96D71) | 0.0518 | -0.801 |
| ACSF2 (UniProt Q96CM8) | 0.214 | 0.977 |
| C2ORF47 (UniProt Q8WWC4) | -1.32 | -0.848 |
| TNPO1 (UniProt Q92973) | 0.8 | 0.165 |
| SMG7 (UniProt Q92540) | -0.325 | 0.169 |
| PRCC (UniProt Q92733) | -1.43 | -2.88 |
| DGCR14 (UniProt Q96DF8) | 0.177 | -2.08 |
| RTF1 (UniProt Q92541) | 0.946 | 0.177 |
| UniProt Q96AK3 | -1.63 | -0.0384 |
| UniProt Q92618 | -6.39 | 0.224 |
| CMBL (UniProt Q96DG6) | 0.597 | 0.174 |
| UniProt Q92599 | -2.6 | 0.0378 |
| P3H4 (UniProt Q92791) | -0.241 | -0.467 |
| GNPNAT1 (UniProt Q96EK6) | -0.922 | 1 |
| RAB24 (UniProt Q969Q5) | -1.07 | 0.496 |
| EFHD2 (UniProt Q96C19) | -0.768 | 1.11 |
| NECTIN2 (UniProt Q92692) | -1.94 | -1.79 |
| CREBBP (UniProt Q92793) | -0.565 | 0.36 |
| AKT1S1 (UniProt Q96B36) | -0.919 | 0.458 |
| UniProt Q92484 | -1.11 | -4.57 |
| POMGNT1 (UniProt Q8WZA1) | -0.188 | 0.0794 |
| NELFB (UniProt Q8WX92) | -1.05 | -0.488 |
| UniProt Q96BU1 | -5.61 | -7.66 |
| CASKIN2 (UniProt Q8WXE0) | -1.17 | -0.615 |
| SPRYD4 (UniProt Q8WW59) | -0.838 | 0.127 |

2 records drawn at random from those above, as already listed:

| Target | melting temperature shift (MBE1 concentration: 100 nM) [°C] | melting temperature shift (MBE1 concentration: 1 uM) [°C] |
| --- | --- | --- |
| UniProt Q96AK3 | -1.63 | -0.0384 |
| CREBBP (UniProt Q92793) | -0.565 | 0.36 |
